Experimental findings from publication PMC2653512 are described below.

The target in the test is GST-RhoGDIβ fusion protein (human). The test is described as follows: pull-down; GST-RhoGDIβ bound to glutathione-Sepharose beads; 300 μg lysate of 293T cells transfected with GFP-tagged ZAK constructs, pre-cleared; at least 2 h at 4°C in PD buffer (50 mM Tris-HCl pH 8.0, 150 mM NaCl, 0.5% NP40, 1 mM DTT, 1 mM PMSF); immunoblotting; only the target purified. (In general: Immunoblotting shows a protein as a band on a membrane.)

Results are given in words; binding and its absence hold for the method and conditions named. In cells and extracts the contact can be indirect. A result given as binding can be weak or reduced; the word gives no strength.

B1: ZAK 6-7 (fragment of amino acids 600-700 of ZAK) (domain or fragment, UniProt Q9NYL2 600-700)
chain: PFFSHFDGQDSYAAAVRRPQVPIKYQQITPVNQSRSSSPTQYGLTKNFSSLHLNSRDSGFSSGNTDTSSERGRYSDRSRNKYGRGSISLNSSPRGRYSGKS
B1: the binding entry is given as “binds”.
